Source: patent publication US10525115B2 (Immatics Biotechnologies GmbH, priority 2014, dated 2020)

Tests used:
[1] = test system: primary AML samples; test: HLA class II ligandome analysis (LC-MS/MS) of primary AML samples; set-up: species or system human; conditions: HLA class II ligandome, AML patients n=12
[2] = test system: cancer tissues in comparison to non-cancerous tissues and organs; test: Presentation profile / over-presentation by label-free LC-MS (XPRESIDENT), tumor versus normal tissues, other proliferative diseases; set-up: species or system human; conditions: other proliferative diseases / organs (other than AML) that over- or exclusively present the peptide; Table 5

Substance	Number of positive AMLs [1]	Proliferative disease and location thereof [2]
547 (DFFGNGPPVNYKTG; listed as Homo sapiens) [compound 547]	2	lung, non-small cell lung carcinoma, bone, non- ossifying fibroma
481 (DSNEFSVIADPRGN; listed as Homo sapiens) [compound 481]	1	liver, hepatocellular carcinoma, cancer, thyroid; gland, nodular hyperplasia
537 (DTSYVSLKAPLTKPL; listed as Homo sapiens) [compound 537]	1	liver, hepatocellular carcinoma, cancer
577 (ADSLYVEKIDVGEAEPR; listed as Homo sapiens) [compound 577]	3	esophagus, adenocarcinoma
551 (AISDYVFNTASLVYH; listed as Homo sapiens) [compound 551]	1	liver, hepatocellular carcinoma, cancer
463 (GVVHSFSHNVGPGDKY; listed as Homo sapiens) [compound 463]	1	liver, hepatocellular carcinoma, cancer, lung, adenocarcinoma
495 (RLPQLVGVSTPLQGGS; listed as Homo sapiens) [compound 495]	1	kidney, clear cell renal cell carcinoma, endometrium, adenocarcinoma
555 (YVFNTASLVYHEE; listed as Homo sapiens) [compound 555]	1	liver, hepatocellular carcinoma, cancer
508 (ASHFEQMAAASMHR; listed as Homo sapiens) [compound 508]	3	metastatic renal cell carcinoma
518 (GVSLKTLHPDLGTDK; listed as Homo sapiens) [compound 518]	2	kidney, clear cell renal cell carcinoma, kidney, renal cell carcinoma
477 (HRSFVDLSGHNLANPH; listed as Homo sapiens) [compound 477]	1	brain, glioblastoma, parotid gland, pleomorphic; adenoma
450 (LAPLEGARFALVRED; listed as Homo sapiens) [compound 450]	2	liver, hepatocellular carcinoma, cancer
553 (ISDYVFNTASLVYH; listed as Homo sapiens) [compound 553]	1	liver, hepatocellular carcinoma, cancer
448 (APVELILSDETLPAPE; listed as Homo sapiens) [compound 448]	3	liver, hepatocellular carcinoma, cancer
517 (ADELALVDVIEDK; listed as Homo sapiens) [compound 517]	1	kidney, clear cell renal cell carcinoma, kidney, renal cell carcinoma
455 (EMRKLQATVQELQKR; listed as Homo sapiens) [compound 455]	1	lymph node, non-Hodgkin's lymphoma
593 (FRIDSVSEGNAGPY; listed as Homo sapiens) [compound 593]	1	pancreas, adenocarcinoma, lipoma
567 (LSGVLFHSSPALQPA; listed as Homo sapiens) [compound 567]	1	stomach, metastatic, liver, hepatic adenoma
526 (KTSRLPIIDVAPLDVGAPD; listed as Homo sapiens) [compound 526]	1	pancreas, adenocarcinoma, chondrosarcoma
524 (TGDKVYVHLKNLASRPY; listed as Homo sapiens) [compound 524]	1	kidney, clear cell renal cell carcinoma, liver, hepatocellular carcinoma
582 (DVFRQYASLTGTQALPP; listed as Homo sapiens) [compound 582]	1	liver, hepatocellular carcinoma, cancer, small intestine, gastrointestinal stromal tumor
584 (VFRQYASLTGTQALPP; listed as Homo sapiens) [compound 584]	1	liver, hepatocellular carcinoma, cancer, small intestine, gastrointestinal stromal tumor
566 (IQRDILLEKKKVAQDQ; listed as Homo sapiens) [compound 566]	1	stomach, metastatic, liver, hepatic adenoma
515 (WGALATISTLEAVR; listed as Homo sapiens) [compound 515]	2	lung, non-small cell lung carcinoma, liver, hepatocellular carcinoma

Substance	Number of positive AMLs [1]	Proliferative disease and location thereof [2]
598 (SPAMAGGLFAIERE; listed as Homo sapiens) [compound 598]	1	stomach, adenocarcinoma, prostate, adenocarcinoma
490 (PEFDGKRFQNVAKE; listed as Homo sapiens) [compound 490]	1	liver, hepatocellular carcinoma, cancer, thyroid; gland, nodular hyperplasia
482 (DSNEFSVIADPRGNT; listed as Homo sapiens) [compound 482]	1	liver, hepatocellular carcinoma, cancer, thyroid; gland, nodular hyperplasia
462 (GVVHSFSHNVGPGDK; listed as Homo sapiens) [compound 462]	2	liver, hepatocellular carcinoma, cancer, lung, adenocarcinoma
568 (RDILLEKKKVAQDQ; listed as Homo sapiens) [compound 568]	1	stomach, metastatic, liver, hepatic adenoma
562 (EIQRDILLEKKKVAQDQ; listed as Homo sapiens) [compound 562]	1	stomach, metastatic, liver, hepatic adenoma
469 (AEKGVRTLTAAAVSGAQ; listed as Homo sapiens) [compound 469]	1	pancreas, adenocarcinoma, bone, giant cell tumor; of bone
533 (TSRLPIIDVAPLDVGAPD; listed as Homo sapiens) [compound 533]	1	pancreas, adenocarcinoma, chondrosarcoma
505 (TPYSFLPLPTIKDAYR; listed as Homo sapiens) [compound 505]	1	pancreas, adenocarcinoma, myometrium, leiomyoma
499 (SGPSLKGEEEPLVASEDGAVD; listed as Homo sapiens) [compound 499]	1	rectum, adenocarcinoma
530 (RLPIIDVAPLDVGAPDQE; listed as Homo sapiens) [compound 530]	2	pancreas, adenocarcinoma, chondrosarcoma
486 (SDSNEFSVIADPRGNTLG; listed as Homo sapiens) [compound 486]	1	liver, hepatocellular carcinoma, cancer, thyroid; gland, nodular hyperplasia
479 (ALPEFDGKRFQNVAKEG; listed as Homo sapiens) [compound 479]	1	liver, hepatocellular carcinoma, cancer, thyroid; gland, nodular hyperplasia
512 (IESTFDVVSSKPVG; listed as Homo sapiens) [compound 512]	2	parathyroid gland, adenoma
559 (TPPRLVAPRFLEVE; listed as Homo sapiens) [compound 559]	1	stomach, metastatic, non-Hodgkin's lymphoma
511 (GQVIVAIPKLQTQQ; listed as Homo sapiens) [compound 511]	1	parathyroid gland, adenoma
525 (VYVHLKNLASRPY; listed as Homo sapiens) [compound 525]	1	kidney, clear cell renal cell carcinoma, liver, hepatocellular carcinoma
467 (VRPGGVVHSFSHNVGPGDK; listed as Homo sapiens) [compound 467]	1	liver, hepatocellular carcinoma, cancer, lung, adenocarcinoma
591 (ESEARFRIDSVSEGNAGPY; listed as Homo sapiens) [compound 591]	1	pancreas, adenocarcinoma, lipoma
494 (LPQLVGVSTPLQGGS; listed as Homo sapiens) [compound 494]	3	kidney, clear cell renal cell carcinoma, endometrium, adenocarcinoma
556 (IVIALSGNKADLA; listed as Homo sapiens) [compound 556]	1	brain, glioblastoma, endometrium, adenocarcinoma
520 (DDNIKTYSDHPEK; listed as Homo sapiens) [compound 520]	1	kidney, clear cell renal cell carcinoma, liver, hepatocellular carcinoma
519 (IVSGKDYNVTANSKL; listed as Homo sapiens) [compound 519]	1	kidney, clear cell renal cell carcinoma, kidney, renal cell carcinoma
549 (LDFFGNGPPVNYKTG; listed as Homo sapiens) [compound 549]	1	lung, non-small cell lung carcinoma, bone, non- ossifying fibroma
